# In the supplement of paper PMC7125110:
# ± gives the standard error. Many of these values have a large error.
# B1: glmS ribozyme (parent)
# chain: AUAAAAGCGCCAGAACUACAGAAAUGUAGUUGACGAGGAGGAGGUUUAUCGAAUUUUCGGCGGAUGCCUCCAAA
# Variants of: B1
# Assay: KM; higher = weaker cofactor use; RNA array
# Details: with glucosamine-6-phosphate
# Outline: (§1)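 Glucosamine-6-phosphate (40 μM to 10 mM) in HEPES/KCl/Mg(OAc)2 buffer was flowed over sequenced MiSeq chips, and tiles were imaged over ~14 h. Barcoded ribozyme variants there had been transcribed in situ by E. coli RNA polymerase and were tracked through a hybridised Cy3 probe at 37 °C. One- or two-exponential decay fits to per-tile medians, normalised to baseline and to non-cleaving reference variants, gave kobs. kcat and KM came from weighted Michaelis–Menten fits across concentrations.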
row,Variant,KM
1,AUAAAAGCGCCAGCACUACAGAAAUGUAGUUGACCAGGAGGAGGUUUAUCGAAUUUUCGGCGGAUGCCUCCAAA [A14C G35C],488 ± 290 µM
2,AUAAAAGCGCCAGCACUACAGAAAUGUAGUUGACGAGGAAGAGGUUUAUCGAAUUUUCGGCGGAUGCCUCCAAA [A14C G40A],1850 ± 1300 µM
3,AUAAAAGCGCCAGCACUACAGAAAUGUAGCUGACGAGGAGGAGGUUUAUCGAAUUUUCGGCGGAUGCCUCCAAA [A14C U30C],151 ± 50 µM
4,AUAAAAGCGCCAGCACUACAGAAAUGUAGUUGACGAGGAGGAGGAUUAUCGAAUUUUCGGCGGAUGCCUCCAAA [A14C U45A],1770 ± 900 µM
5,AUAAAAGCGCCAGCACUACAGAAAUGUAGUUGACGAGGAGGAGGGUUAUCGAAUUUUCGGCGGAUGCCUCCAAA [A14C U45G],3410 ± 600 µM
6,AUAAAAGCGCCAGCACUACAGAAAUGUAGUUGACGAGGAGGAGGUUGAUCGAAUUUUCGGCGGAUGCCUCCAAA [A14C U47G],2500 ± 550 µM
7,AUAAAAGCGCCAGCACUACAGAAAUGUAGUUGACGAGGAGGAGGUUUAUCGAAGUUUCGGCGGAUGCCUCCAAA [A14C U54G],3310 ± 1300 µM
8,AUAAAAGCGCCAGCACUACAGAAAUGUAGUUGACGAGGAGGAGGUUUAUCGAAUUGUCGGCGGAUGCCUCCAAA [A14C U56G],126 ± 96 µM
9,AUAAAAGCGCCAGCACUACAGAAAUGUAGUUGACGAGGAGGAGGUUUAUCGAAUUUACGGCGGAUGCCUCCAAA [A14C U57A],10600 ± 1600 µM
10,AUAAAAGCGCCAGGACUACAGAAAUGUAGUUGACGAGGAGGAGGUUUGUCGAAUUUUCGGCGGAUGCCUCCAAA [A14G A48G],648 ± 220 µM
11,AUAAAAGCGCCAGGAUUACAGAAAUGUAGUUGACGAGGAGGAGGUUUAUCGAAUUUUCGGCGGAUGCCUCCAAA [A14G C16U],75.5 ± 48 µM
12,AUAAAAGCGCCAGGACUACAGAAAUGUAGUUGACGAGGAGGAGGUUUAUCGAAUUUUCGGCGGAUGCCUCUAAA [A14G C71U],3350 ± 1700 µM
13,AUAAAAGCGCCAGGACUACAGAAAUGUAUUUGACGAGGAGGAGGUUUAUCGAAUUUUCGGCGGAUGCCUCCAAA [A14G G29U],801 ± 550 µM
14,AUAAAAGCGCCAGGACUACAGAAAUGUAGUUCACGAGGAGGAGGUUUAUCGAAUUUUCGGCGGAUGCCUUCAAA [A14G G32C C70U],17800 ± 9500 µM
15,AUAAAAGCGCCAGGACUACAGAAAUGUAGUUGACGAGGAAGAGGUUUAUCGAAUUUUCGGCGGAUGCCUCCAAA [A14G G40A],256 ± 160 µM
16,AUAAAAGCGCCAGGACUACAGAAAUGUAGUUGACGAGGAGUAGGAUUAUCGAAUUUUCGGCGGAUGCCUUCAAA [A14G G41U U45A C70U],90.7 ± 54 µM
17,AUAAAAGCGCCAGGACUACAGAAAUGUAGUUGACGAGGAGGAGGUUUAUCGAAUUUUCGACGGAUGCCUCCAAA [A14G G60A],3020 ± 1300 µM
18,AUAAAAGCGCCAGGACUACAGAAAUGUAGUAGACGAGGAGGAGGUUUAUCGAAUUUUCGGCGGAUGGCUCCAAA [A14G U31A C67G],550 ± 430 µM
19,AUAAAAGCGCCAGGACUACAGAAAUGUAGUUGACGAGGAGGAGGUUUAUCGAACUUUCGGCGGAUGCCUCCAAA [A14G U54C],4420 ± 270 µM
20,AUAAAAGCGCCAGGACUACAGAAAUGUAGUUGACGAGGAGGAGGUUUAUCGAAUCUUCGGCGGAUGCCUCCAAA [A14G U55C],1530 ± 800 µM
21,AUAAAAGCGCCAGGACUACAGAAAUGUAGUUGACGAGGAGGAGGUUUAUCGAAUGUUCGGCGGAUGCCUCCAAA [A14G U55G],314 ± 180 µM
22,AUAAAAGCGCCAGUACUACAGAAAUGUAGUUGACGGGGAGGAGGUUUAUCGAAUUUUCGGCGGAUUCCUCCAAA [A14U A36G G66U],50.8 ± 29 µM
23,AUAAAAGCGCCAGUACUACAGAAAUGUAGUUGACGAGGAGGUGGUUUAUCGAAUUUUCGGCGGAUGCCUCCAAA [A14U A42U],884 ± 270 µM
24,AUAAAAGCGCCAGUACUACAGAAAUGUAGUUGACGAGGAGGAGGUUUAUCGUAUUUUCGGCGGAUGCCUCCAAA [A14U A52U],2930 ± 110 µM
25,AUAAAAGCGCCAGUACUACAGAAAUGUAGUUGACGAGGAGGAGGUUUAUCGAAUUUUCGGCGGAUGCCUGCAAA [A14U C70G],338 ± 170 µM
26,AUAAAAGCGCCAGUACUACAGAAAUGUAUUUGACGAGGAGGAGGUUUAUCGAAUUUUCGGCGGAUGCCUCCAAA [A14U G29U],2040 ± 400 µM
27,AUAAAAGCGCCAGUACUACAGAAAUGUAGUUGACGAGGAGAAGGUUUAUCGAAUUUUCGGCGGAUGCCUCCAAA [A14U G41A],1930 ± 1000 µM

# At a glance, part of the list above:
row,Variant,KM
4,AUAAAAGCGCCAGCACUACAGAAAUGUAGUUGACGAGGAGGAGGAUUAUCGAAUUUUCGGCGGAUGCCUCCAAA [A14C U45A],1770 ± 900 µM
5,AUAAAAGCGCCAGCACUACAGAAAUGUAGUUGACGAGGAGGAGGGUUAUCGAAUUUUCGGCGGAUGCCUCCAAA [A14C U45G],3410 ± 600 µM

# Variants of: B1
# Assay: self-cleavage kobs at 2500 uM GlcN6P; higher = faster cleavage; RNA array
# Details: with glucosamine-6-phosphate
# Outline: as §1
row,Variant,self-cleavage kobs at 2500 uM GlcN6P
1,AUAAAAGCGCCAGCACUACAGAAAUGUAGCUGACGAGGAGGAGGUUUAUCGAAUUUUCGGCGGAUGCCUCCAAA [A14C U30C],1.48e-05 ± 1.4e-05 s⁻¹
2,AUAAAAGCGCCAGGACUACAGAAAUGUAGUUGACGAGGAGGAGGUUUAUCGAAUCUUCGGCGGAUGCCUCCAAA [A14G U55C],0.0798 ± 0.043 s⁻¹
3,AUAAAAGCGCCAGUACUACAGAAAUGUAGUUGACGAGGAGGUGGUUUAUCGAAUUUUCGGCGGAUGCCUCCAAA [A14U A42U],2.19e-05 ± 1.5e-05 s⁻¹

# Variants of: B1
# Assay: self-cleavage kobs at 10000 uM GlcN6P; higher = faster cleavage; RNA array
# Details: with glucosamine-6-phosphate
# Outline: as §1
row,Variant,self-cleavage kobs at 10000 uM GlcN6P
1,AUAAAAGCGCCAGCACUACAGAAAUGUAGCUGACGAGGAGGAGGUUUAUCGAAUUUUCGGCGGAUGCCUCCAAA [A14C U30C],1.49e-05 ± 1.2e-05 s⁻¹
2,AUAAAAGCGCCAGUACUACAGAAAUGUAGUUGACGAGGAGGAGGUUUAUCGAAUUUUCGGCGGAUGCCUGCAAA [A14U C70G],0.00268 ± 0.0014 s⁻¹

# Variants of: B1
# Assay: self-cleavage kobs at 40 uM GlcN6P; higher = faster cleavage; RNA array
# Details: with glucosamine-6-phosphate
# Outline: as §1
row,Variant,self-cleavage kobs at 40 uM GlcN6P
1,AUAAAAGCGCCAGCACUACAGAAAUGUAGUUGACGAGGAGGAGGGUUAUCGAAUUUUCGGCGGAUGCCUCCAAA [A14C U45G],1.68e-05 ± 1.2e-05 s⁻¹
2,AUAAAAGCGCCAGUACUACAGAAAUGUAGUUGACGAGGAGGAGGUUUAUCGAAUUUUCGGCGGAUGCCUGCAAA [A14U C70G],1.02e-05 ± 8e-06 s⁻¹

# Variants of: B1
# Assay: self-cleavage kobs at 640 uM GlcN6P; higher = faster cleavage; RNA array
# Details: with glucosamine-6-phosphate
# Outline: as §1
row,Variant,self-cleavage kobs at 640 uM GlcN6P
1,AUAAAAGCGCCAGGACUACAGAAAUGUAGUUCACGAGGAGGAGGUUUAUCGAAUUUUCGGCGGAUGCCUUCAAA [A14G G32C C70U],1.94e-05 ± 1.3e-05 s⁻¹

# Variants of: B1
# Assay: self-cleavage kobs at 160 uM GlcN6P; higher = faster cleavage; RNA array
# Details: with glucosamine-6-phosphate
# Outline: as §1
row,Variant,self-cleavage kobs at 160 uM GlcN6P
1,AUAAAAGCGCCAGUACUACAGAAAUGUAGUUGACGAGGAGAAGGUUUAUCGAAUUUUCGGCGGAUGCCUCCAAA [A14U G41A],3.14e-05 ± 2.4e-05 s⁻¹
